Publication PMC9855983
Results are given in words; binding and its absence hold for the method and conditions named. In cells and extracts the contact can be indirect. Some binding calls cover weakened binding; strength is not graded here. Sequences can lack the tags named with a protein.

Chains of the proteins cited; added tags and fusions are not shown. Residues count along the entry.
UniProt Q66HD0, residues 22-804: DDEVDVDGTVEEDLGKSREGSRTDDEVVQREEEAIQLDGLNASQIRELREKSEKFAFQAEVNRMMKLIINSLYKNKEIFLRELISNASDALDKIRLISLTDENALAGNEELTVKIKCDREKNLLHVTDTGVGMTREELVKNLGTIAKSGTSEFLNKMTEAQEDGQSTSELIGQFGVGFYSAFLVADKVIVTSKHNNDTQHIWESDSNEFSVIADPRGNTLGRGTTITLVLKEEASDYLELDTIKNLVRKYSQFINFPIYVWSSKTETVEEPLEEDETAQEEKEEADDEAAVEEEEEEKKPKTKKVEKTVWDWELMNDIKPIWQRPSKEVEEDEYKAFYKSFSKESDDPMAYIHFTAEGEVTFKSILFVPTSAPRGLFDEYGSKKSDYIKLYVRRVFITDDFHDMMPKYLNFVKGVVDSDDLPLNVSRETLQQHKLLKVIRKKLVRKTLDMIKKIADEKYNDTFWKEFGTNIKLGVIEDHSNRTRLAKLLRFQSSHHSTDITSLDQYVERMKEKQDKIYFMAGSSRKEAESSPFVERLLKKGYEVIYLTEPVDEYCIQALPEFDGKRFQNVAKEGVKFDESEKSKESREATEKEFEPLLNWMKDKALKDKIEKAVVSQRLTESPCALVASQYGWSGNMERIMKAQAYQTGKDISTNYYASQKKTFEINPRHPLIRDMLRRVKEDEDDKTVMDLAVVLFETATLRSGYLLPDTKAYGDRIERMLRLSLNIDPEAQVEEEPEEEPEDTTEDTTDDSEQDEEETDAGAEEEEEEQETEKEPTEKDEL

Target: T1, myc-tagged FKBP2 (UniProt P26885)
T1 sequence: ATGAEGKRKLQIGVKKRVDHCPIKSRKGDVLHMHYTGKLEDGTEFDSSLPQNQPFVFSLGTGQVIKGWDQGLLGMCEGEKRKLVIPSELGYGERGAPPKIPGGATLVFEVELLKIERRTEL
Test: co-IP; myc-tagged FKBP2 expressed in INS-1E cells (48 h), precipitated with myc-trap beads, SDS-PAGE and Western blot; in one experiment lysates pretreated for 10 min with 100 mM 2-mercaptoethanol (more proinsulin bound)

GRP94, endogenous in INS-1E cells (from UniProt Q66HD0 22-804)
binding: binds
